Experimental data reported in PMC11671999.
No constants are given. Whether binding was seen depends on the method and setting. In cells and extracts the contact can be indirect. Some results given as binding are weak or reduced against the parent protein; the word gives no strength.

Protein sequences, listed by entry. Tags and fused reporters are not part of them.
UniProt Q9UM07: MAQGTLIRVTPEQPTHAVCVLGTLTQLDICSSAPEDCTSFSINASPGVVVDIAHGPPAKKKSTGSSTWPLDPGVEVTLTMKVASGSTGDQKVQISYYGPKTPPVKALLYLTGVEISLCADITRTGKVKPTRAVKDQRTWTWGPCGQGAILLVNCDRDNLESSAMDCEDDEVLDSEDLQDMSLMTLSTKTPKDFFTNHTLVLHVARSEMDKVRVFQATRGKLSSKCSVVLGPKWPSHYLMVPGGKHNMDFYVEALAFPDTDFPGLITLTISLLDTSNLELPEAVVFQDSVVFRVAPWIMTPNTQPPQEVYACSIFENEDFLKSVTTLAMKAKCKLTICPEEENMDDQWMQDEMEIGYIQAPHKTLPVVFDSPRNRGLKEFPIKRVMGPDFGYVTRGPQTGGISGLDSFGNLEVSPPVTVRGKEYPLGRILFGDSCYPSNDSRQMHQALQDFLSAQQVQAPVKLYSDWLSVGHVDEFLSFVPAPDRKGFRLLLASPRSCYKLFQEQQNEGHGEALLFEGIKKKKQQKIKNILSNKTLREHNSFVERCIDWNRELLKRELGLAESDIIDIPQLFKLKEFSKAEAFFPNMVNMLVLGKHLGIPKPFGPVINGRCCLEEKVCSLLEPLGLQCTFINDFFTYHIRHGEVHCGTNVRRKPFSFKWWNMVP
UniProt P35908: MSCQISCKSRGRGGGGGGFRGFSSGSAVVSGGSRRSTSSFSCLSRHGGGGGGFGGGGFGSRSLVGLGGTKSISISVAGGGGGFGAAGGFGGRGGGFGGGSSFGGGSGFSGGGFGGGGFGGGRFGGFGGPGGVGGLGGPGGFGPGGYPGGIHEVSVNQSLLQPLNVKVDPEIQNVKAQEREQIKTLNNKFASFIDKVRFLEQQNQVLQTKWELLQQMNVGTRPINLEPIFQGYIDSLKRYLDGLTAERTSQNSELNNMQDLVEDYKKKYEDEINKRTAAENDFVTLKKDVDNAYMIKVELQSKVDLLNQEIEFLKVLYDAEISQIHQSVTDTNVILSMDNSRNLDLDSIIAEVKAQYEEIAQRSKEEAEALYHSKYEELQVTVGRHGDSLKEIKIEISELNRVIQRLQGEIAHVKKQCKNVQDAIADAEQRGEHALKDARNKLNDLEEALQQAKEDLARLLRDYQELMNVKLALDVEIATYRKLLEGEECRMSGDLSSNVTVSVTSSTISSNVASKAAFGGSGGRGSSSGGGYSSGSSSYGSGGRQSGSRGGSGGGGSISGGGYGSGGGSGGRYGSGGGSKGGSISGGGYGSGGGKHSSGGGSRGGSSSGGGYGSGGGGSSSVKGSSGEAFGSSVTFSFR
UniProt P04264: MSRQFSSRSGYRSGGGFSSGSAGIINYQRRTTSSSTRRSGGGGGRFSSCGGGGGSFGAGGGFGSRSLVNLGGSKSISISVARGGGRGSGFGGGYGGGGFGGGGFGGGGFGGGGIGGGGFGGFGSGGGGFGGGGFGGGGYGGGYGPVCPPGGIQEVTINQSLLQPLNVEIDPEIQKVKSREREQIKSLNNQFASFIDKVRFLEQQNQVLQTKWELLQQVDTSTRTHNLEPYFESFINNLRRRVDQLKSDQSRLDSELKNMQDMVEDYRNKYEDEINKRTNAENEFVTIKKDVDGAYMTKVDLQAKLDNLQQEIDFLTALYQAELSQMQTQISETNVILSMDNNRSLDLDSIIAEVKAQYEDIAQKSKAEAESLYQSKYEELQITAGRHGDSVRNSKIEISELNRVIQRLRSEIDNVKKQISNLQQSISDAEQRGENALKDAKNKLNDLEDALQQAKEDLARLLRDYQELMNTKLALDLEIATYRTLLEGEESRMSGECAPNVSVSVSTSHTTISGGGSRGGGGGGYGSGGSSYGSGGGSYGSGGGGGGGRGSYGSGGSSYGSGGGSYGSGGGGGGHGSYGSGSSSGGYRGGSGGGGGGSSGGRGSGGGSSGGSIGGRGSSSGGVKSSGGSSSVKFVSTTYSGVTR
UniProt P13645: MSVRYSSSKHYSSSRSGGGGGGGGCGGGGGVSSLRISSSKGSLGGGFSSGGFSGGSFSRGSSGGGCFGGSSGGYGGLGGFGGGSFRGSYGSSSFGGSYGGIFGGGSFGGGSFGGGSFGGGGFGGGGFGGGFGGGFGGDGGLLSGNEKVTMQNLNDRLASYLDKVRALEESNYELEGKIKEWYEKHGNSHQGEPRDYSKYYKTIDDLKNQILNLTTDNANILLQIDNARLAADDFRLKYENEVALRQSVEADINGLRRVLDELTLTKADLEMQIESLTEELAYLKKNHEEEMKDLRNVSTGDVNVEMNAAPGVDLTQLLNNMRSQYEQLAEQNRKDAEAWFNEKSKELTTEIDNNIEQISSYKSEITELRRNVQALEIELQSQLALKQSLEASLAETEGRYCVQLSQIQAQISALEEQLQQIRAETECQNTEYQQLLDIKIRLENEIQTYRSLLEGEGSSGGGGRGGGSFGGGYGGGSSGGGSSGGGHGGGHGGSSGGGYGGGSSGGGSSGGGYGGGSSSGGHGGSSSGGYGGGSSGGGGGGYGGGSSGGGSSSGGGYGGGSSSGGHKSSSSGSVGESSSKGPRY

B1: Keratin 9 (K9) (protein, UniProt P35527 1-623)
chain: MSCRQFSSSYLSRSGGGGGGGLGSGGSIRSSYSRFSSSGGGGGGGRFSSSSGYGGGSSRVCGRGGGGSFGYSYGGGSGGGFSASSLGGGFGGGSRGFGGASGGGYSSSGGFGGGFGGGSGGGFGGGYGSGFGGFGGFGGGAGGGDGGILTANEKSTMQELNSRLASYLDKVQALEEANNDLENKIQDWYDKKGPAAIQKNYSPYYNTIDDLKDQIVDLTVGNNKTLLDIDNTRMTLDDFRIKFEMEQNLRQGVDADINGLRQVLDNLTMEKSDLEMQYETLQEELMALKKNHKEEMSQLTGQNSGDVNVEINVAPGKDLTKTLNDMRQEYEQLIAKNRKDIENQYETQITQIEHEVSSSGQEVQSSAKEVTQLRHGVQELEIELQSQLSKKAALEKSLEDTKNRYCGQLQMIQEQISNLEAQITDVRQEIECQNQEYSLLLSIKMRLEKEIETYHNLLEGGQEDFESSGAGKIGLGGRGGSGGSYGRGSRGGSGGSYGGGGSGGGYGGGSGSRGGSGGSYGGGSGSGGGSGGGYGGGSGGGHSGGSGGGHSGGSGGNYGGGSGSGGGSGGGYGGGSGSRGGSGGSHGGGSGFGGESGGSYGGGEEASGSGGGYGGGSGKSSHS

Molecular target: protein arginine deiminase type 4 (PAD4) (human (endogenous in GES-1)) (UniProt Q9UM07)
Test: co-IP; immunoprecipitation and blot of PAD4 and keratins; details in the supplemental methods

Molecule | binding
Keratin 2 (K2) (from UniProt P35908 1-639) | no binding
Keratin 1 (K1) (from UniProt P04264 1-644) | binds
Keratin 10 (K10) (from UniProt P13645 1-584) | no binding
B1 | no binding
